Consider one substance from PMC12521541, “A novel D-peptide modulates DCLK1 gelsolin interactions, reducing PDAC tumor growth” (Scientific Reports, 2025).

Chains of the proteins cited; added tags and fusions are not shown. Residues count along the entry.
UniProt P06396, residues 28-782: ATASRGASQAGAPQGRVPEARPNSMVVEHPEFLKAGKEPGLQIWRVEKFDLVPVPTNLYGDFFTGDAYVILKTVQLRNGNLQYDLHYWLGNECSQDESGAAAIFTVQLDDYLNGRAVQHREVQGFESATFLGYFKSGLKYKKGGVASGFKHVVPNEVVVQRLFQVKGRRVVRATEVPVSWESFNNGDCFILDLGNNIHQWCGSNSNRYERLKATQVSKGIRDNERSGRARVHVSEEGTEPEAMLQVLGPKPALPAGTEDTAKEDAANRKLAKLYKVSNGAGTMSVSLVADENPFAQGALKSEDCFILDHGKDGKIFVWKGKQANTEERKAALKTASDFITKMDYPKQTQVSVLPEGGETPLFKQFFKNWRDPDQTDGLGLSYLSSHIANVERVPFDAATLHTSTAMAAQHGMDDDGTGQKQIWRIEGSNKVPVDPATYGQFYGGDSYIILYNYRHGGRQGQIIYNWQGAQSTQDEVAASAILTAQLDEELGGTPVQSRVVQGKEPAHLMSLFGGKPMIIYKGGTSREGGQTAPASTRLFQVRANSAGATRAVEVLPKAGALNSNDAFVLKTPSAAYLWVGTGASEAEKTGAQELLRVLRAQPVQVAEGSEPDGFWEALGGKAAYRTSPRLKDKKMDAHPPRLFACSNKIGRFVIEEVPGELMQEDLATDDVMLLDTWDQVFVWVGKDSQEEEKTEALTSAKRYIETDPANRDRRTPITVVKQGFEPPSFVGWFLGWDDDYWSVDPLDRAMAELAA

Results are given in words; binding and its absence hold for the method and conditions named. Some binding calls cover weakened binding; strength is not graded here.

Assay [1] addresses T1, human DCLK1 isoform 4 (beta-short) (human) (UniProt O15075).
T1 sequence: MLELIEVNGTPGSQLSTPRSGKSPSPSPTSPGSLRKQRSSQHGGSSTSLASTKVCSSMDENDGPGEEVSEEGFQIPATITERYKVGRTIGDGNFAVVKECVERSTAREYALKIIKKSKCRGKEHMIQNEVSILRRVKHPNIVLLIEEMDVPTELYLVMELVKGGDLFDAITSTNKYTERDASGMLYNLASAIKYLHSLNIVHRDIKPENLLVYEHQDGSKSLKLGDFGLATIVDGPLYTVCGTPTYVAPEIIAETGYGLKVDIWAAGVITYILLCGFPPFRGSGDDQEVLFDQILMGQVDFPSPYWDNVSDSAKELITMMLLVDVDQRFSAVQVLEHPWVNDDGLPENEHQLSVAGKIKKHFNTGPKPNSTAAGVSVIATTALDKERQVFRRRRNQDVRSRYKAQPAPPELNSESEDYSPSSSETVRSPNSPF
Briefly: ELISA; competition: DCLK1 isoform 4 coated; gelsolin or FGF19 added with D-peptide 1, D-peptide 3, D-peptide 5 or the CBT-15 peptide (printed as 20 mg/well); RT; bound gelsolin or FGF19 immunodetected; both purified.

The target in assay [2] is T1, human DCLK1 isoform 4 (beta-short) (human). The assay can be described thus: ELISA; DCLK1 isoform 4 coated on Immulon 2HB plate in 0.1 M NaHCO3 pH 8.6, overnight 4 C; blocked with 1% gelatin in TTBS; gradient of gelsolin added at RT, detected with anti-gelsolin antibody; both purified.

For the substance “plasma gelsolin (from UniProt P06396 28-782)”, the binding result in assay [1] and in assay [2] was “binds” each time.
